Reference: paper doi:10.1101/2025.05.29.656919 (bioRxiv, 2025)

The chains behind the UniProt entries cited, without tags or fusion partners. Residues count along the entry.
UniProt Q8S926, residues 1-118: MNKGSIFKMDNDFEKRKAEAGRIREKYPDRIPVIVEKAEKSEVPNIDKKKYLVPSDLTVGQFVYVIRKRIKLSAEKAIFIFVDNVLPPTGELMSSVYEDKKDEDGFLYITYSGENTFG

B1: ATG7 (protein, UniProt Q94CD5 1-697)
chain: MAEKETPAIILQFAPLNSSVDEGFWHSFSSLKLDKLGIDDSPISITGFYGPCGHPQVSNHLTLLSESLPLDEQSLIASTSHGNRNKCPVPGILYNTNTVESFNKLDKQSLLKAEANKIWEDIQSGKALEDPSVLPRFLVISFADLKKWSFRYWFAFPAFVLDPPVSLIELKPASEYFSSEEAESVSAACNDWRDSDLTTDVPFFLVSVSSDSKASIRHLKDLEACQGDHQKLLFGFYDPCHLPSNPGWPLRNYLALIRSRWNLETVWFFCYRESRGFADLNLSLVGQASITLSSGESAETVPNSVGWELNKGKRVPRSISLANSMDPTRLAVSAVDLNLKLMRWRALPSLNLNVLSSVKCLLLGAGTLGCQVARTLMGWGIRNITFVDYGKVAMSNPVRQSLYNFEDCLGRGEFKAVAAVKSLKQIFPAMETSGVVMAIPMPGHPISSQEEDSVLGDCKRLSELIESHDAVFLLTDTRESRWLPSLLCANANKIAINAALGFDSYMVMRHGAGPTSLSDDMQNLDINKTNTQRLGCYFCNDVVAPQDSMTDRTLDQQCTVTRPGLAPIAGALAVELLVGVLQHPLGINAKGDNSSLSNTGNNDDSPLGILPHQIRGSVSQFSQITLLGQASNSCTACSETVISEYRERGNSFILEAINHPTYLEDLTGLTELKKAANSFNLDWEDDDTDDDDVAVDL
B2: VDAC1 (voltage-dependent anion channel 1) (protein, UniProt Q9SRH5 1-276)
chain: MVKGPGLYTEIGKKARDLLYKDHNSDQKFSITTFSPAGVAITSTGTKKGDLLLGDVAFQSRRKNITTDLKVCTDSTFLITATVDEAAPGLRSIFSFKVPDQNSGKVELQYLHEYAGISTSMGLTQNPTVNFSGVIGSNVLAVGTDVSFDTKSGNFTKINAGLSFTKEDLIASLTVNDKGDLLNASYYHIVNPLFNTAVGAEVSHKLSSKDSTITVGTQHSLDPLTSVKARVNSAGIASALIQHEWKPKSFFTISGEVDTKSIDKSAKVGLALALKP
B3: VDAC2 (voltage-dependent anion channel 2) (protein, UniProt Q9FJX3 1-276)
chain: MSKGPGLFTDIGKKAKDLLTRDYNSDQKFSISTYSASGVALTSTALKKGGVHAADVATQYKYKNALFDVKIDTDSSVLTTVTLTEILPSTKAIASFKVPDYNSAKLEVQYFHDHATVTAAAALKQNPLIDITATLGSPVISFGAEAGYDTTSKTFTKYNAGISVTKPDACLSIILGDKGDSLKASYLHHFDEFKRTAAVGEVYRKFSTNENTITVGGLYAIDHSTAVKAKLNNHGTLGALLQHEVLPRSLVTVSSEIDTKALEKHPRFGLSLALKP
B4: VDAC3 (voltage-dependent anion channel 3) (protein, UniProt Q9SMX3 1-274)
chain: MVKGPGLYTEIGKKARDLLYRDYQGDQKFSVTTYSSTGVAITTTGTNKGSLFLGDVATQVKNNNFTADVKVSTDSSLLTTLTFDEPAPGLKVIVQAKLPDHKSGKAEVQYFHDYAGISTSVGFTATPIVNFSGVVGTNGLSLGTDVAYNTESGNFKHFNAGFNFTKDDLTASLILNDKGEKLNASYYQIVSPSTVVGAEISHNFTTKENAITVGTQHALDPLTTVKARVNNAGVANALIQHEWRPKSFFTVSGEVDSKAIDKSAKVGIALALKP

molecular target: yellow fluorescent protein-tagged ATG8e (Arabidopsis) (UniProt Q8S926); assay: affinity purification with mass spectrometry

Row | Binder | binding
1 | B1 | binds
2 | B2 | binds
3 | B3 | binds
4 | B4 | binds

Results are given in words; binding and its absence hold for the method and conditions named. In cells and extracts the contact can be indirect. Here binding means that the protein was enriched with, or labelled near, the bait; the list need not be complete. Tags and fused reporters may be left off the sequences shown.
